Drawing on PMC8964797, this text covers binding for 3 molecules.

Sequences of proteins named here, by UniProt entry; tags and fusion partners are left off. A change or cut given only in a name is not applied to a line headed by its entry.
UniProt Q9LM15: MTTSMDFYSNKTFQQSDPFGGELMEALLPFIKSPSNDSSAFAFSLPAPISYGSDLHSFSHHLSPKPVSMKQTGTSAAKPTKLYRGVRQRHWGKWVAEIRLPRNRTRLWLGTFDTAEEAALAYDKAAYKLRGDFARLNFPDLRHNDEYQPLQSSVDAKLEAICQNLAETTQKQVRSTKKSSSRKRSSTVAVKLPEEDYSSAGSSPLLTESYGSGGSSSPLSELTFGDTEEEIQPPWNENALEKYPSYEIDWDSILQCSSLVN
UniProt Q9SKW5: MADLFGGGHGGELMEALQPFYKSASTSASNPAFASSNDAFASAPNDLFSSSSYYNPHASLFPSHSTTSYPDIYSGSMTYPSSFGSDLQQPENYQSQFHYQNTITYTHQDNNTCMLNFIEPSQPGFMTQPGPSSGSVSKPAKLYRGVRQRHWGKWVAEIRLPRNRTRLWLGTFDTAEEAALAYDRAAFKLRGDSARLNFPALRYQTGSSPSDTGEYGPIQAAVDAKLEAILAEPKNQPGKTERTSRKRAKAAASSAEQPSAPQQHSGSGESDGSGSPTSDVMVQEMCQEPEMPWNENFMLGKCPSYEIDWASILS
UniProt P14713: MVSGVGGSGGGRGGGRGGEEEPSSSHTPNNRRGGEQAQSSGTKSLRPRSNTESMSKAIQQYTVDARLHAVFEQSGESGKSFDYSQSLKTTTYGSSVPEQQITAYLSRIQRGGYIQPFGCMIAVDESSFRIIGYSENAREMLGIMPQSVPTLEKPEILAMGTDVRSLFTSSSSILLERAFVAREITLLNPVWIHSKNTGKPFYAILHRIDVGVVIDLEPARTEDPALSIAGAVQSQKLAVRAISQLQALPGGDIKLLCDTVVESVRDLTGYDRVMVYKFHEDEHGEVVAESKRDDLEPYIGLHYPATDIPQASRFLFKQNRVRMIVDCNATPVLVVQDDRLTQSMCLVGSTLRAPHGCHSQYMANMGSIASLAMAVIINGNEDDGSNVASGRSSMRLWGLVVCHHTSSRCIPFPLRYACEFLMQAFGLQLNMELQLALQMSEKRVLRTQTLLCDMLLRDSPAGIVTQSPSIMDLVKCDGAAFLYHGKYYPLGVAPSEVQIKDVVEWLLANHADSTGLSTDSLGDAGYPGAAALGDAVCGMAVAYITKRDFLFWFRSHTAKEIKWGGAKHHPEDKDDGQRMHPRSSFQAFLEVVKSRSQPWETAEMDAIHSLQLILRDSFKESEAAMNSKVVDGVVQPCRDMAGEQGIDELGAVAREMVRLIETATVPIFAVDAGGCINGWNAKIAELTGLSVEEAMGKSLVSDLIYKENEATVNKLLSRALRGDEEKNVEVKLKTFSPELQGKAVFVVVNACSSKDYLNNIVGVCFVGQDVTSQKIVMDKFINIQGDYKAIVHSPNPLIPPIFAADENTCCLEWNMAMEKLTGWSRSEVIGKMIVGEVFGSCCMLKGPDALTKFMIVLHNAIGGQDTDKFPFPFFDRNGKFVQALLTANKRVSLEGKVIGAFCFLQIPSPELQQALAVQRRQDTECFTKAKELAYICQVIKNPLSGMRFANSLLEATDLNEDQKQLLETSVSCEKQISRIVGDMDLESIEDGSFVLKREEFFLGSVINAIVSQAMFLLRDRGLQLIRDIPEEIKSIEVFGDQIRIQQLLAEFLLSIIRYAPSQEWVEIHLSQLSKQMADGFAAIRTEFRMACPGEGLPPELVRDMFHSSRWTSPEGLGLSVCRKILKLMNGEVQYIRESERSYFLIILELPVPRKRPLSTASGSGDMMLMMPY

These are yes or no findings as the source states them, for the method shown. A result given as binding can be weak or reduced; the word gives no strength. For part of these data: Sequences can lack the tags named with a protein. For part of these data: In cells and extracts the contact can be indirect.

The target in assay [1] is T1, Full-length phyA fused to LexA (Arabidopsis thaliana) (UniProt P14712).
T1 sequence (chain, chromophore phycocyanobilin (PCB) supplied in the medium): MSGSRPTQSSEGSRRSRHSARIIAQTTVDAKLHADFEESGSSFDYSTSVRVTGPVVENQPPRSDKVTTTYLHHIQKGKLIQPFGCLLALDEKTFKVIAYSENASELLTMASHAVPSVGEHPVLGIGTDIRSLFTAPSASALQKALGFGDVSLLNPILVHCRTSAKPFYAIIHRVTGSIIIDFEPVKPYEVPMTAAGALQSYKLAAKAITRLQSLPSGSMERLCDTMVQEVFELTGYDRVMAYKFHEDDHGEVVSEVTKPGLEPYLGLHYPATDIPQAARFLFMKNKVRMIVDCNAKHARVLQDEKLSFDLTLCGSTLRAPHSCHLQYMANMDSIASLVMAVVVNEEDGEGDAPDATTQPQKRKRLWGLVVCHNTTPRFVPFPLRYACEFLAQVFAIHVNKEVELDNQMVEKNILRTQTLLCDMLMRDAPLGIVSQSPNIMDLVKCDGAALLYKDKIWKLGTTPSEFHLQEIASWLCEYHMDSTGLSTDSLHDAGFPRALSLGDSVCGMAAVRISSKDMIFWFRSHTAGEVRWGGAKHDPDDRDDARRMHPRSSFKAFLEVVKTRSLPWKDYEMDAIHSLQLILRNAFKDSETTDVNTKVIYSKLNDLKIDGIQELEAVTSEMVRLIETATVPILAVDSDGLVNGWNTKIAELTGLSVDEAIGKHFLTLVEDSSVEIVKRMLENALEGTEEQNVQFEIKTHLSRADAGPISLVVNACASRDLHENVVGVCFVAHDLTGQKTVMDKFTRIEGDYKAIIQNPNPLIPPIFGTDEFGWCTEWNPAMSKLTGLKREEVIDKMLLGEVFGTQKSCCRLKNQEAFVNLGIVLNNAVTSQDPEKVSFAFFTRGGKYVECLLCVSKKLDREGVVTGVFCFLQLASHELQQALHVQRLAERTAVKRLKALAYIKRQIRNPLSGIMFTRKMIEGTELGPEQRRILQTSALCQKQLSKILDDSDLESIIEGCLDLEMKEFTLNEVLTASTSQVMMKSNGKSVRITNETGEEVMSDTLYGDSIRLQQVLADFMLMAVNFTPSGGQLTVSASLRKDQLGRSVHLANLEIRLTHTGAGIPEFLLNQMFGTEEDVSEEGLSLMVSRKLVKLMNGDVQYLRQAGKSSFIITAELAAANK
As to the kind of experiment: two-hybrid; phyA or phyBN fused to LexA, ERFs fused to GAL4 AD, S. cerevisiae NMY51; 20 μM PCB; ONPG β-Gal assay after 5 min R or FR light, and growth on CSM -L-T-H in the dark or R light (5 mM 3-amino-1,2,4-triazole for phyB).

The target of assay [2] is HA-YFP-ERF58 (Arabidopsis thaliana) (UniProt Q9LM15). As to the kind of experiment: co-IP; extracts of 3-day-old dark-grown Col-0 pERF58:HA-YFP-ERF58 seedlings kept in the dark or treated with 5 min R, 2 h FR, or 2 h FR + 5 min R; α-GFP MicroBeads; blots with α-phyA, α-phyB, α-HA; Col-0 as negative control.

Regarding “ERF55 (yeast two-hybrid fusion) (from UniProt Q9SKW5)”, in assay [1], the binding entry was “binds”.
For the molecule “Endogenous phyB (from UniProt P14713 1-1172)”, the binding result in assay [2] is reported as “binds”.

B1: Endogenous phyA (protein, UniProt P14712 1-1122)
chain: T1 sequence (chain, chromophore phycocyanobilin (PCB) supplied in the medium)
Take B1: the binding result in assay [2] is “binds”.
